Record: PubChem BioAssay AID1224830 (NIAID, 2016)
Shown is a random part of about 18,000 reagents tested. About 2,900 of them (16%) count as active. 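Calls are made per well; low scores hint the gene aids the LPS response, high scores that it dampens it.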 Repeated entries: four replicate wells of each siRNA pool.

Assay: 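Genes whose knock-down alters the TNF-alpha reporter response to LPS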 (primary screen)
System: human THP-1 monocytic leukaemia cells, TNF dual-luciferase reporter clone, PMA-differentiated to macrophage-like cells
Reagents: siRNA pool against human genes, 50 nM
Timing: LPS for 4 h, given about 3 days after siRNA transfection
Conditions: bacterial LPS (TLR4 ligand), 10 ng/ml
Measured: 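TNF firefly reporter luminescence divided by renilla, normalised to the plate median, then turned into a robust z-score for each replicate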
Direction: TNF reporter robust z-score: higher = stronger TNF reporter response to LPS
Call rule: 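a well is active when its z-score exceeds 2.8 or falls below -1.5; control wells carry no call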

Depletion of DNM3 (dynamin 3) [SID315455641] resulted in: TNF reporter robust z-score -1.1; inactive. With knock-down of DNM3 (dynamin 3) [SID315455641], the screen gave TNF reporter robust z-score 0.29; inactive. After knock-down of DNM3 (dynamin 3) [SID315455641] the results were TNF reporter robust z-score -0.32; inactive. For DNM3 (dynamin 3) [SID315455641] the deposit lists TNF reporter robust z-score 0.47; inactive. Depletion of KRTAP6-3 (keratin associated protein 6-3) [SID315463961] came out at: TNF reporter robust z-score -0.71; inactive. After knock-down of KRTAP6-3 (keratin associated protein 6-3) [SID315463961] the results were TNF reporter robust z-score -0.46; inactive.

KRTAP6-3 (keratin associated protein 6-3) [SID315463961] scored TNF reporter robust z-score -1.04; inactive. Against KRTAP6-3 (keratin associated protein 6-3) [SID315463961], the values are TNF reporter robust z-score -0.08; inactive. Knock-down of TAS2R42 (taste 2 receptor member 42) [SID315464280] resulted in: TNF reporter robust z-score -0.68; inactive. Against TAS2R42 (taste 2 receptor member 42) [SID315464280], the values are TNF reporter robust z-score 1.64; inactive. For TAS2R42 (taste 2 receptor member 42) [SID315464280], the values are TNF reporter robust z-score 1.04; inactive. With knock-down of TAS2R42 (taste 2 receptor member 42) [SID315464280], the record shows TNF reporter robust z-score 0.49; inactive.

Copied from the listing for reference:
KRTAP6-3 (keratin associated protein 6-3) [SID315463961] | TNF reporter robust z-score = -0.08; Outcome = inactive
TAS2R42 (taste 2 receptor member 42) [SID315464280] | TNF reporter robust z-score = -0.68; Outcome = inactive

Additional records:
FPR2 (formyl peptide receptor 2) [SID315448754] scored TNF reporter robust z-score -0.27; inactive. For FPR2 (formyl peptide receptor 2) [SID315448754] the deposit lists TNF reporter robust z-score 0.22; inactive. FPR2 (formyl peptide receptor 2) [SID315448754] gave TNF reporter robust z-score -0.13; inactive. Knock-down of FPR2 (formyl peptide receptor 2) [SID315448754] came out at: TNF reporter robust z-score -0.11; inactive. After knock-down of CACTIN (cactin, spliceosome C complex subunit) [SID315458647], the screen gave TNF reporter robust z-score -0.34; inactive. CACTIN (cactin, spliceosome C complex subunit) [SID315458647] gave TNF reporter robust z-score -0.61; inactive.

CACTIN (cactin, spliceosome C complex subunit) [SID315458647] showed TNF reporter robust z-score -1.38; inactive. Knock-down of CACTIN (cactin, spliceosome C complex subunit) [SID315458647] resulted in: TNF reporter robust z-score -0.8; inactive. For TXNDC11 (thioredoxin domain containing 11) [SID315456433], the entry reads TNF reporter robust z-score -1.02; inactive. TXNDC11 (thioredoxin domain containing 11) [SID315456433] showed TNF reporter robust z-score 0.74; inactive. Knock-down of TXNDC11 (thioredoxin domain containing 11) [SID315456433] came out at: TNF reporter robust z-score -0.87; inactive. TXNDC11 (thioredoxin domain containing 11) [SID315456433] showed TNF reporter robust z-score -0.63; inactive.

After knock-down of LDLRAD1 (low density lipoprotein receptor class A domain containing 1) [SID315464506], the screen gave TNF reporter robust z-score 0.29; inactive. After knock-down of LDLRAD1 (low density lipoprotein receptor class A domain containing 1) [SID315464506], the record shows TNF reporter robust z-score 1.4; inactive. Knock-down of LDLRAD1 (low density lipoprotein receptor class A domain containing 1) [SID315464506] resulted in: TNF reporter robust z-score 1.7; inactive. With knock-down of LDLRAD1 (low density lipoprotein receptor class A domain containing 1) [SID315464506], the screen gave TNF reporter robust z-score -0.02; inactive. After knock-down of KLF6 (KLF transcription factor 6) [SID315448041] the results were TNF reporter robust z-score -0.27; inactive. Silencing of KLF6 (KLF transcription factor 6) [SID315448041] came out at: TNF reporter robust z-score -0.13; inactive.

With knock-down of KLF6 (KLF transcription factor 6) [SID315448041] the results were TNF reporter robust z-score -0.3; inactive. Silencing of KLF6 (KLF transcription factor 6) [SID315448041] gave: TNF reporter robust z-score -0.04; inactive.
